# The other results are listed elsewhere or left out. Some results for these compounds are left out of this collection, so the calls shown say nothing about other tests.
# Experiment: microtubule stabilizers in HeLa cells, primary screen, imaging, high-content imaging (AID 2205);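 as to toxicity: 0% = mean cell density of plate MIN control wells and 100% = no cells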
# Conditions: HeLa tubulin immunostaining HCS, 24 h, at 10 µM; % Hoechst-high responders: measured here: nuclear condensation Hoechst responders, stronger effect = higher value, share of cells brighter than vehicle mean+2SD; toxicity: measured here: cytotoxicity by cell density
Compound,% Hoechst-high responders,toxicity
COc1cccc(C(=O)NCC2(N3CCCCC3)CCCCC2)c1,2.4%,4.53%
CN(C)c1cccc(C(=O)NCC2(N(C)C)CCCCC2)c1,1.6%,7.03%
O=C(OC1CN2CCC1CC2)C(CO)(c1ccccc1)c1ccccc1 (stereo not drawn),2.07%,12.7%
CC(C)N1C(=O)CC2(CCN(CCOC(=O)C(O)(c3ccccc3)c3ccccc3)CC2)C1=O,1.9%,1.73%
O=C(NCC1(N2CCCCC2)CCCCC1)c1cc([N+](=O)[O-])ccc1Cl,2.48%,6.02%
C=CCN1CCN(CCOC(=O)C(O)(c2ccccc2)c2ccccc2)CC1,1.68%,1.32%
CCN1CCCC(OC(=O)C2(O)c3ccccc3C=Cc3ccccc32)C1 (stereo not drawn),2.86%,11.2%
CN(C)C1CCCC1OC(=O)C(O)(c1ccccc1)c1ccccc1 (stereo not drawn),1.92%,5.47%
Cc1ccccc1C(=O)NCC1(N2CCCCC2)CCCCC1,1.61%,6.85%
